# Laboratory results reported in PMC10364420.
# No constants are given. Whether binding was seen depends on the method and setting. In cells and extracts the contact can be indirect. Some binding calls cover weakened binding; strength is not graded here. For part of these data: Where a sequence is shown, tags or fusion partners need not be part of it.
# T1: protein disulfide isomerase family a member 4 (PDIA4), endogenous (human (endogenous in HUVECs)) (UniProt P13667)
# T1 sequence: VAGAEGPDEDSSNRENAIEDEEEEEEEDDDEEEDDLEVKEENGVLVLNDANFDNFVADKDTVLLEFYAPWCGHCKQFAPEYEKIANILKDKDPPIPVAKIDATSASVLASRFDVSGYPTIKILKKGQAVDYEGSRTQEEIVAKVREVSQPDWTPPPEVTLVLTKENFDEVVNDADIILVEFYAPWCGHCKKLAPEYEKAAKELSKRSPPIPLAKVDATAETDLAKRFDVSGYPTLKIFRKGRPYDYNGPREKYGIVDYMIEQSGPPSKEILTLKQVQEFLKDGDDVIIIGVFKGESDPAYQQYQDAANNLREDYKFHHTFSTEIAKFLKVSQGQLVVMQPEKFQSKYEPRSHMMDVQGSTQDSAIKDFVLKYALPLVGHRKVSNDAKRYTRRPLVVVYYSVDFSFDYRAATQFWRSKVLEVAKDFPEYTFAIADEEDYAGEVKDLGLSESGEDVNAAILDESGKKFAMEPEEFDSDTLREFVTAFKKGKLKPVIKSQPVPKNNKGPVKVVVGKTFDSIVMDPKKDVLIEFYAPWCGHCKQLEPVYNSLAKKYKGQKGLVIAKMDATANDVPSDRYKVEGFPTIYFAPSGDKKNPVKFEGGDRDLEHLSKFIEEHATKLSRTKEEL
# T2: PDIA4 overexpressed from lentiviral vector pGC-FU/GV350 (Ubi-MCS-3FLAG-SV40-Neomycin) (UniProt P13667)
# T2 sequence: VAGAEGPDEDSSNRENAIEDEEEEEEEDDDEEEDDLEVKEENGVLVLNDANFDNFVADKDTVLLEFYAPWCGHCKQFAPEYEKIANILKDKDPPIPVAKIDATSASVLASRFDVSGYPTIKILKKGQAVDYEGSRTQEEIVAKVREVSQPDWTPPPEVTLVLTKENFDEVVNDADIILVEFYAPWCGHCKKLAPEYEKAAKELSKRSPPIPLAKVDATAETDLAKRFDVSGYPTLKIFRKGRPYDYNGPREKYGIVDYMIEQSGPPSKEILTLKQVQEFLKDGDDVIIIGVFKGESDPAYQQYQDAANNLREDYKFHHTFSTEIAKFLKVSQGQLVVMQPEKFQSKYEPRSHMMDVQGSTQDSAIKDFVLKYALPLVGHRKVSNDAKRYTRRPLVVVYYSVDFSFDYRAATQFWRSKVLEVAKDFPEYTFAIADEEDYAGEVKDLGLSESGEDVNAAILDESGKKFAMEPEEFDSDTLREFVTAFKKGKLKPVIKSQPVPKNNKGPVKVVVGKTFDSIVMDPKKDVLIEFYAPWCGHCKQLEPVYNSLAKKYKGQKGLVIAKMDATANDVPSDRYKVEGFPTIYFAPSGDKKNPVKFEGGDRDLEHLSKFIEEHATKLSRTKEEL
# Legend:
# [1] = molecular target: T1, protein disulfide isomerase family a member 4 (PDIA4), endogenous (human (endogenous in HUVECs)); assay: co-IP; endogenous proteins in HUVEC lysate; supernatants incubated with anti-PDIA4, anti-DDIT4 or anti-IgG at 4 °C overnight, protein A/G-agarose beads 2 h, western blotting
# [2] = molecular target: T2, PDIA4 overexpressed from lentiviral vector pGC-FU/GV350 (Ubi-MCS-3FLAG-SV40-Neomycin); assay: co-IP; lysate of HUVECs transfected with PDIA4 or DDIT4 overexpression; anti-PDIA4, anti-DDIT4 or anti-IgG at 4 °C overnight, protein A/G-agarose beads 2 h, western blotting
# [3] = molecular target: T1, protein disulfide isomerase family a member 4 (PDIA4), endogenous (human (endogenous in HUVECs)); assay: as above
binding [1],binding [2],binding [3],Binder
binds,binds,,"DNA damage-inducible transcript 4 (DDIT4), endogenous (protein, UniProt Q9NX09 1-232) MPSLWDRFSSSSTSSSPSSLPRTPTPDRPPRSAWGSATREEGFDRSTSLESSDCESLDSSNSGFGPEEDTAYLDGVSLPDFELLSDPEDEHLCANLMQLLQESLAQARLGSRRPARLLMPSQLVSQVGKELLRLAYSEPCGLRGALLDVCVEQGKSCHSVGQLALDPSLVPTFQLTLVLRLDSRLWPKIQGLFSSANSPFLPGFSQSLTLSTGFRVIKKKLYSSEQLLIEEC"
,,binds,"DDIT4 overexpressed from pcDNA3.1-DDIT4 (protein, UniProt Q9NX09 1-232) MPSLWDRFSSSSTSSSPSSLPRTPTPDRPPRSAWGSATREEGFDRSTSLESSDCESLDSSNSGFGPEEDTAYLDGVSLPDFELLSDPEDEHLCANLMQLLQESLAQARLGSRRPARLLMPSQLVSQVGKELLRLAYSEPCGLRGALLDVCVEQGKSCHSVGQLALDPSLVPTFQLTLVLRLDSRLWPKIQGLFSSANSPFLPGFSQSLTLSTGFRVIKKKLYSSEQLLIEEC"
